The record followed here is article PMC10238091.

This test has as its target T1, SA1 (Stromalin Antigen 1, STAG1) (human (endogenous in HCT116 and HeLa)) (UniProt Q8WVM7).
T1 sequence: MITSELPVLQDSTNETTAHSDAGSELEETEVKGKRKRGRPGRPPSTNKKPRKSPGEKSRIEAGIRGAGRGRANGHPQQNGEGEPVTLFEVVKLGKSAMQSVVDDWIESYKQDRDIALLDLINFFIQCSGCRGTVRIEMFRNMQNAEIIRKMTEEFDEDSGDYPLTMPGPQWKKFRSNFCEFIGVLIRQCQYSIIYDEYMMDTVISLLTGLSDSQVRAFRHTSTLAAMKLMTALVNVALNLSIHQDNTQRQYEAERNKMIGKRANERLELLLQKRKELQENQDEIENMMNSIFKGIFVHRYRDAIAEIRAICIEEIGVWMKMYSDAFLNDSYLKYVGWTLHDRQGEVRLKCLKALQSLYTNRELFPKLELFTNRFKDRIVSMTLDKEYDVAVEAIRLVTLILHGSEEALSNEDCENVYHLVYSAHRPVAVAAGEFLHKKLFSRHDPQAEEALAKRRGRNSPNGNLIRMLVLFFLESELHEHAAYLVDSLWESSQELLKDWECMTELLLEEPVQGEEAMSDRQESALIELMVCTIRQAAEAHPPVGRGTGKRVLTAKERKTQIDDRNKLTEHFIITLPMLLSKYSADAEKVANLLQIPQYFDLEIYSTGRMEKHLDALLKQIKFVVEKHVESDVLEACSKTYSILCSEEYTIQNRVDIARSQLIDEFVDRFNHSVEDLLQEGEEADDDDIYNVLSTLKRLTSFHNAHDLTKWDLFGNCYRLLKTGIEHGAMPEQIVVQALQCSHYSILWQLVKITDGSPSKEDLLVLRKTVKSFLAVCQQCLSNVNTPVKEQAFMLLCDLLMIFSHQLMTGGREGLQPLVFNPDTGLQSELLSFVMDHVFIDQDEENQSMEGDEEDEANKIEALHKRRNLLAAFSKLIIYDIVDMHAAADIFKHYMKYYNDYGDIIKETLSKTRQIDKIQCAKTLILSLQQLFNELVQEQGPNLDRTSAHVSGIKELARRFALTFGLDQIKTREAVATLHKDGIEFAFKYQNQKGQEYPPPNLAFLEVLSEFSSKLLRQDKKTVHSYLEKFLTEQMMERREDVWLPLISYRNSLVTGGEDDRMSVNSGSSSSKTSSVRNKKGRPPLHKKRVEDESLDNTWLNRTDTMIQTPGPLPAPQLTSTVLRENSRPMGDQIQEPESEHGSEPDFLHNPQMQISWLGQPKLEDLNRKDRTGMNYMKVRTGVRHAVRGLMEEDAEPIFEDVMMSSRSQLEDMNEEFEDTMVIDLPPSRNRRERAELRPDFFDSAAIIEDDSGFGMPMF
Kind of test: affinity purification with mass spectrometry; endogenous SA1 IP (15 μg antibody, 2 mg chromatin extract) from RAD21mAC cells untreated or IAA 4 h, with IgG and siSA1 controls; LC-MS/MS, three biological replicates.

These are yes or no findings as the source states them, for the method shown. Binding seen in cells or lysates may run through a third protein. These calls come from enrichment with a bait or labelling near it, and not all partners need be listed. Tags and fused reporters may be left off the sequences shown.

B1: ESYT2 (protein, UniProt A0FGR8 1-921)
chain: MTANRDAALSSHRHPGCAQRPRTPTFASSSQRRSAFGFDDGNFPGLGERSHAPGSRLGARRRAKTARGLRGHRQRGAGAGLSRPGSARAPSPPRPGGPENPGGVLSVELPGLLAQLARSFALLLPVYALGYLGLSFSWVLLALALLAWCRRSRGLKALRLCRALALLEDEERVVRLGVRACDLPAWVHFPDTERAEWLNKTVKHMWPFICQFIEKLFRETIEPAVRGANTHLSTFSFTKVDVGQQPLRINGVKVYTENVDKRQIILDLQISFVGNCEIDLEIKRYFCRAGVKSIQIHGTMRVILEPLIGDMPLVGALSIFFLRKPLLEINWTGLTNLLDVPGLNGLSDTIILDIISNYLVLPNRITVPLVSEVQIAQLRFPVPKGVLRIHFIEAQDLQGKDTYLKGLVKGKSDPYGIIRVGNQIFQSRVIKENLSPKWNEVYEALVYEHPGQELEIELFDEDPDKDDFLGSLMIDLIEVEKERLLDEWFTLDEVPKGKLHLRLEWLTLMPNASNLDKVLTDIKADKDQANDGLSSALLILYLDSARNLPSGKKISSNPNPVVQMSVGHKAQESKIRYKTNEPVWEENFTFFIHNPKRQDLEVEVRDEQHQCSLGNLKVPLSQLLTSEDMTVSQRFQLSNSGPNSTIKMKIALRVLHLEKRERPPDHQHSAQVKRPSVSKEGRKTSIKSHMSGSPGPGGSNTAPSTPVIGGSDKPGMEEKAQPPEAGPQGLHDLGRSSSSLLASPGHISVKEPTPSIASDISLPIATQELRQRLRQLENGTTLGQSPLGQIQLTIRHSSQRNKLIVVVHACRNLIAFSEDGSDPYVRMYLLPDKRRSGRRKTHVSKKTLNPVFDQSFDFSVSLPEVQRRTLDVAVKNSGGFLSKDKGLLGKVLVALASEELAKGWTQWYDLTEDGTRPQAMT
For B1, the binding entry is listed as “binds”.

B2: ADAR1 (protein, UniProt P55265 1-1226)
chain: MNPRQGYSLSGYYTHPFQGYEHRQLRYQQPGPGSSPSSFLLKQIEFLKGQLPEAPVIGKQTPSLPPSLPGLRPRFPVLLASSTRGRQVDIRGVPRGVHLRSQGLQRGFQHPSPRGRSLPQRGVDCLSSHFQELSIYQDQEQRILKFLEELGEGKATTAHDLSGKLGTPKKEINRVLYSLAKKGKLQKEAGTPPLWKIAVSTQAWNQHSGVVRPDGHSQGAPNSDPSLEPEDRNSTSVSEDLLEPFIAVSAQAWNQHSGVVRPDSHSQGSPNSDPGLEPEDSNSTSALEDPLEFLDMAEIKEKICDYLFNVSDSSALNLAKNIGLTKARDINAVLIDMERQGDVYRQGTTPPIWHLTDKKRERMQIKRNTNSVPETAPAAIPETKRNAEFLTCNIPTSNASNNMVTTEKVENGQEPVIKLENRQEARPEPARLKPPVHYNGPSKAGYVDFENGQWATDDIPDDLNSIRAAPGEFRAIMEMPSFYSHGLPRCSPYKKLTECQLKNPISGLLEYAQFASQTCEFNMIEQSGPPHEPRFKFQVVINGREFPPAEAGSKKVAKQDAAMKAMTILLEEAKAKDSGKSEESSHYSTEKESEKTAESQTPTPSATSFFSGKSPVTTLLECMHKLGNSCEFRLLSKEGPAHEPKFQYCVAVGAQTFPSVSAPSKKVAKQMAAEEAMKALHGEATNSMASDNQPEGMISESLDNLESMMPNKVRKIGELVRYLNTNPVGGLLEYARSHGFAAEFKLVDQSGPPHEPKFVYQAKVGGRWFPAVCAHSKKQGKQEAADAALRVLIGENEKAERMGFTEVTPVTGASLRRTMLLLSRSPEAQPKTLPLTGSTFHDQIAMLSHRCFNTLTNSFQPSLLGRKILAAIIMKKDSEDMGVVVSLGTGNRCVKGDSLSLKGETVNDCHAEIISRRGFIRFLYSELMKYNSQTAKDSIFEPAKGGEKLQIKKTVSFHLYISTAPCGDGALFDKSCSDRAMESTESRHYPVFENPKQGKLRTKVENGEGTIPVESSDIVPTWDGIRLGERLRTMSCSDKILRWNVLGLQGALLTHFLQPIYLKSVTLGYLFSQGHLTRAICCRVTRDGSAFEDGLRHPFIVNHPKVGRVSIYDSKRQSGKTKETSVNWCLADGYDLEILDGTRGTVDGPRNELSRVSKKNIFLLFKKLCSFRYRRDLLRLSYGEAKKAARDYETAKNYFKKGLKDMGYGNWISKPQEEKNFYLCPV
Take B2: the binding result is “binds”.

B3: DHX29 (protein, UniProt Q7Z478 1-1369)
chain: MGGKNKKHKAPAAAVVRAAVSASRAKSAEAGIAGEAQSKKPVSRPATAAAAAAGSREPRVKQGPKIYSFNSTNDSSGPANLDKSILKVVINNKLEQRIIGVINEHKKQNNDKGMISGRLTAKKLQDLYMALQAFSFKTKDIEDAMTNTLLYGGDLHSALDWLCLNLSDDALPEGFSQEFEEQQPKSRPKFQSPQIQATISPPLQPKTKTYEEDPKSKPKKEEKNMEVNMKEWILRYAEQQNEEEKNENSKSLEEEEKFDPNERYLHLAAKLLDAKEQAATFKLEKNKQGQKEAQEKIRKFQREMETLEDHPVFNPAMKISHQQNERKKPPVATEGESALNFNLFEKSAAATEEEKDKKKEPHDVRNFDYTARSWTGKSPKQFLIDWVRKNLPKSPNPSFEKVPVGRYWKCRVRVIKSEDDVLVVCPTILTEDGMQAQHLGATLALYRLVKGQSVHQLLPPTYRDVWLEWSDAEKKREELNKMETNKPRDLFIAKLLNKLKQQQQQQQQHSENKRENSEDPEESWENLVSDEDFSALSLESANVEDLEPVRNLFRKLQSTPKYQKLLKERQQLPVFKHRDSIVETLKRHRVVVVAGETGSGKSTQVPHFLLEDLLLNEWEASKCNIVCTQPRRISAVSLANRVCDELGCENGPGGRNSLCGYQIRMESRACESTRLLYCTTGVLLRKLQEDGLLSNVSHVIVDEVHERSVQSDFLLIILKEILQKRSDLHLILMSATVDSEKFSTYFTHCPILRISGRSYPVEVFHLEDIIEETGFVLEKDSEYCQKFLEEEEEVTINVTSKAGGIKKYQEYIPVQTGAHADLNPFYQKYSSRTQHAILYMNPHKINLDLILELLAYLDKSPQFRNIEGAVLIFLPGLAHIQQLYDLLSNDRRFYSERYKVIALHSILSTQDQAAAFTLPPPGVRKIVLATNIAETGITIPDVVFVIDTGRTKENKYHESSQMSSLVETFVSKASALQRQGRAGRVRDGFCFRMYTRERFEGFMDYSVPEILRVPLEELCLHIMKCNLGSPEDFLSKALDPPQLQVISNAMNLLRKIGACELNEPKLTPLGQHLAALPVNVKIGKMLIFGAIFGCLDPVATLAAVMTEKSPFTTPIGRKDEADLAKSALAMADSDHLTIYNAYLGWKKARQEGGYRSEITYCRRNFLNRTSLLTLEDVKQELIKLVKAAGFSSSTTSTSWEGNRASQTLSFQEIALLKAVLVAGLYDNVGKIIYTKSVDVTEKLACIVETAQGKAQVHPSSVNRDLQTHGWLLYQEKIRYARVYLRETTLITPFPVLLFGGDIEVQHRERLLSIDGWIYFQAPVKIAVIFKQLRVLIDSVLRKKLENPKMSLENDKILQIITELIKTENN
Consider B3, for which the binding result is listed as “binds”.

B4: FTSJ3 (protein, UniProt Q8IY81 1-847)
chain: MGKKGKVGKSRRDKFYHLAKETGYRSRSAFKLIQLNRRFQFLQKARALLDLCAAPGGWLQVAAKFMPVSSLIVGVDLVPIKPLPNVVTLQQDITTERCRQALRKELKTWKVDVVLNDGAPNVGASWVHDAYSQAHLTLMALRLACDFLARGGSFITKVFRSRDYQPLLWIFQQLFRRVQATKPQASRHESAEIFVVCQGFLAPDKVDSKFFDPKFAFKEVEVQAKTVTELVTKKKPKAEGYAEGDLTLYHRTSVTDFLRAANPVDFLSKASEIMVDDEELAQHPATTEDIRVCCQDIRVLGRKELRSLLNWRTKLRRYVAKKLKEQAKALDISLSSGEEDEGDEEDSTAGTTKQPSKEEEEEEEEEQLNQTLAEMKAQEVAELKRKKKKLLREQRKQRERVELKMDLPGVSIADEGETGMFSLSTIRGHQLLEEVTQGDMSAADTFLSDLPRDDIYVSDVEDDGDDTSLDSDLDPEELAGVRGHQGLRDQKRMRLTEVQDDKEEEEEENPLLVPLEEKAVLQEEQANLWFSKGSFAGIEDDADEALEISQAQLLFENRRKGRQQQQKQQLPQTPPSCLKTEIMSPLYQDEAPKGTEASSGTEAATGLEGEEKDGISDSDSSTSSEEEESWEPLRGKKRSRGPKSDDDGFEIVPIEDPAKHRILDPEGLALGAVIASSKKAKRDLIDNSFNRYTFNEDEGELPEWFVQEEKQHRIRQLPVGKKEVEHYRKRWREINARPIKKVAEAKARKKRRMLKRLEQTRKKAEAVVNTVDISEREKVAQLRSLYKKAGLGKEKRHVTYVVAKKGVGRKVRRPAGVRGHFKVVDSRMKKDQRAQQRKEQKKKHKRK
With B4, the binding result was “binds”.
